Literature values as cited in patent publication US20180042280A1, “HIGH REBAUDIOSIDE-A PLANT VARIETAL, METHODS OF EXTRACTION AND PURIFICATION THEREFROM, OF COMPOSITIONS WITH ENHANCED REBAUDIOSIDE-A CONTENT AND USES OF SAID COMPOSITION” (GLG Life Tech Corporation, priority 2015, published 2018).

Settings: Table 1

Row | Molecule | Quality of taste
1 | C=C1C[C@@]23CC[C@H]4[C@@](C)(CCC[C@@]4(C)C(=O)O)[C@@H]2CC[C@]1(O)C3 [Steviol] | Very bitter
2 | Rebaudioside C | Bitter
3 | C=C1C[C@@]23CC[C@H]4[C@@](C)(CCC[C@@]4(C)C(=O)O[C@@H]4O[C@H](CO)[C@@H](O)[C@H](O)[C@H]4O)[C@@H]2CC[C@]1(O[C@@H]1O[C@H](CO)[C@@H](O)[C@H](O)[C@H]1O[C@@H]1O[C@H](CO)[C@@H](O)[C@H](O)[C@H]1O)C3 [Stevioside] | Bitter
4 | C=C1C[C@@]23CC[C@H]4[C@@](C)(CCC[C@@]4(C)C(=O)O[C@@H]4O[C@H](CO)[C@@H](O)[C@H](O)[C@H]4O[C@@H]4O[C@H](CO)[C@@H](O)[C@H](O)[C@H]4O)[C@@H]2CC[C@]1(O[C@@H]1O[C@H](CO)[C@@H](O)[C@H](O[C@@H]2O[C@H](CO)[C@@H](O)[C@H](O)[C@H]2O)[C@H]1O[C@@H]1O[C@H](CO)[C@@H](O)[C@H](O)[C@H]1O)C3 [Rebaudioside D] | Like sucrose
5 | Rebaudioside B | Bitter
